What all share (experiment): binding ELISA, GST fusion captured by anti-GST
The target of assay [1] is human-mouse chimeric erbB3 extracellular domain with human domains 1 to 3 and mouse domain 4, GST fusion (human; mouse) (UniProt P21860).
The target of assay [2] is human-mouse chimeric erbB3 extracellular domain with human domain 1 and mouse domains 2 to 4, GST fusion (human; mouse) (UniProt Q61526).
The target in assay [3] is human-mouse chimeric erbB3 extracellular domain with human domains 1 and 2 and mouse domains 3 and 4, GST fusion (human; mouse) (UniProt Q61526).

Amino acid sequences for entries named in this document (tags omitted). A change or cut given only in a name is not applied to a line headed by its entry.
UniProt P21860: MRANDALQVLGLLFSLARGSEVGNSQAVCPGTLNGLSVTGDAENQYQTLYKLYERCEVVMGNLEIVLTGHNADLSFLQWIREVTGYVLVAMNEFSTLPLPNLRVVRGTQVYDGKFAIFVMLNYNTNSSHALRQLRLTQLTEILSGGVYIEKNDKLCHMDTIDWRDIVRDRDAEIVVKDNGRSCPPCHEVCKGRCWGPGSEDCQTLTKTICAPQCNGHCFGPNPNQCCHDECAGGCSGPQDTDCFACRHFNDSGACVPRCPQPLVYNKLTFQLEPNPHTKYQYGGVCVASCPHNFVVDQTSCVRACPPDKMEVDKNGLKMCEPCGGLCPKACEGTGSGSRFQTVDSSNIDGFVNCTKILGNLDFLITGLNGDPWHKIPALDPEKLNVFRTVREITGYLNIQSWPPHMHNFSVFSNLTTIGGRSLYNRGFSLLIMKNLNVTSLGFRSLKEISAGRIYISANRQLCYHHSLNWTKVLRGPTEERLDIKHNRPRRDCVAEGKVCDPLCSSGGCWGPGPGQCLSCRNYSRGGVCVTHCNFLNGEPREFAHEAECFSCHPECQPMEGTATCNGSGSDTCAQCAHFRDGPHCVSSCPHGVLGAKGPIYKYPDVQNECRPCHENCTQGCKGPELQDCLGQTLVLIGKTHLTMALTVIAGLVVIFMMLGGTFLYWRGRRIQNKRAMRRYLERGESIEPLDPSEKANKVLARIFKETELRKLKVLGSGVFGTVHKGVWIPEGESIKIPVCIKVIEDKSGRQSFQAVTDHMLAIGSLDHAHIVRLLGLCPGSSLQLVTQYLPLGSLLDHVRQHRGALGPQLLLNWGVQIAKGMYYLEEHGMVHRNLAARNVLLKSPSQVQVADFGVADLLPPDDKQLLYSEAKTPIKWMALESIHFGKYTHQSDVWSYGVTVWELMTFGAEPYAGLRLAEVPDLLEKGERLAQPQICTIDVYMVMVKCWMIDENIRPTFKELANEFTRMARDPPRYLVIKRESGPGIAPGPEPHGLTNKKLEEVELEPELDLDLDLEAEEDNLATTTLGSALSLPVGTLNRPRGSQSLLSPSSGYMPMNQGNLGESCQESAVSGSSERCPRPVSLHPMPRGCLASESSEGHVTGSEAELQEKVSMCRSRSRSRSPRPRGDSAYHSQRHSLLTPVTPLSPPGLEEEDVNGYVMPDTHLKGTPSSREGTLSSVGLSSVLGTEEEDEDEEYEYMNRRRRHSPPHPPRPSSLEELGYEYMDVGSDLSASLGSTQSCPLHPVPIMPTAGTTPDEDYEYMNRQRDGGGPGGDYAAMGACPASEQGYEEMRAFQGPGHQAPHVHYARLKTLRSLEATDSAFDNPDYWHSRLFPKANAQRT
UniProt Q61526: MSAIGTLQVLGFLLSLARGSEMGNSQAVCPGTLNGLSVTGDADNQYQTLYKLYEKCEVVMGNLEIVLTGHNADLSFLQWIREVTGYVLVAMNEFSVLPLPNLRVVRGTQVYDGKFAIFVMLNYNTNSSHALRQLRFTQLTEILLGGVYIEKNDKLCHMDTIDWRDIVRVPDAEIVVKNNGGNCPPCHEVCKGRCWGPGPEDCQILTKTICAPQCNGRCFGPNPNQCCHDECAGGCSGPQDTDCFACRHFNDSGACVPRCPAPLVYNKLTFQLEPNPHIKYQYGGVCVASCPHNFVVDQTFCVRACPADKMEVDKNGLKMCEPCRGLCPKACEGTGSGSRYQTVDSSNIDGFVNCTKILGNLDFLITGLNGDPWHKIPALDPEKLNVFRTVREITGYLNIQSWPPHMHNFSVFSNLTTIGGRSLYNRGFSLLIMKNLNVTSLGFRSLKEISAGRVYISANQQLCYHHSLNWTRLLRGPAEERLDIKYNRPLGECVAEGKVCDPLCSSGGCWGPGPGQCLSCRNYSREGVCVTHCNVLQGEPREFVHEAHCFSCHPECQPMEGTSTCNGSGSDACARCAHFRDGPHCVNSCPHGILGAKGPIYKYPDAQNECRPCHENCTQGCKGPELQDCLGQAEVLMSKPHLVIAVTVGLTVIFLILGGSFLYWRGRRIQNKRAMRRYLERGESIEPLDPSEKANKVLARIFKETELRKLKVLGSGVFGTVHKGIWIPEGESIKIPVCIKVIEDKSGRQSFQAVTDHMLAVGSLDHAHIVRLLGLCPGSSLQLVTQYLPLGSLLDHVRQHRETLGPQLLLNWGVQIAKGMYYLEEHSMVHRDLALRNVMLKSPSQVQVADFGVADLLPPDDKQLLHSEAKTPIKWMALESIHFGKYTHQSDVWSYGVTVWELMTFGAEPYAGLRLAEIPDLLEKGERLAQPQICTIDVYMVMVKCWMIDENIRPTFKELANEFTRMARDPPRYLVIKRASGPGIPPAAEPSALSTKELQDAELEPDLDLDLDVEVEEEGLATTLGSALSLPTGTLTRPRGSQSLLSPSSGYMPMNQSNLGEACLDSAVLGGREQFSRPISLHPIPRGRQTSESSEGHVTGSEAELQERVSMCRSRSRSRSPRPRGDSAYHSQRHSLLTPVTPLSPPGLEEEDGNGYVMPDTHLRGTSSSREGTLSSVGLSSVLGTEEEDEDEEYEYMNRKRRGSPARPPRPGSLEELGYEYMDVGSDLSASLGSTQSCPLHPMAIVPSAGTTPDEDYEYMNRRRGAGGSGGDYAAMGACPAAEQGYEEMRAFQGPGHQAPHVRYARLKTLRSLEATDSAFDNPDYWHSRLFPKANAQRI

No constants are given. Whether binding was seen depends on the method and setting. Some binding calls cover weakened binding; strength is not graded here.

B1: anti-human erbB3 monoclonal antibody 1153 (antibody, V domains shown)
VH: QVQLQQSGAELVRPGTSVKMSCKAAGYTFTNYWIVWVKQRPGHGLEWIGDIYPGSGHTNYNEKFKGKATLTADTSSSTANMQLSSLTSEDSAIYYCVRPINYDGSYDYWGQGTTLTVSS
VL: DIQMNQSPSSLSASLGDTITITCHASQNINVWLSWYQQKPGNIPKLLIYKASNLHTGVPSRFSGSGSGTGFTLTISSLQPEDIATYYCQQGQSYPRTFGGGTKLEIR
For the molecule B1, the binding entry in assay [1], in assay [2] and in assay [3] was “binds” in each case.

B2: anti-human erbB3 monoclonal antibody 12511 (antibody, V domains shown)
VH: QIQLQQSGPELVNPGASVKISCKPSGYTFTDYYINWVKQRPGQGLEWIGWIHPGGGYTKYNEKFRGKATVTVDTSANTVYMQLSSLTSDDSAVYFCARRDYGDYGFAYWGQGTLVTVSA
VL: DIVLTQSPASLAVSLGQRATISCRVSESVDSYGNSFMHWYQQKPGQPPKLLIYRASNLESGIPDRFSGSVSRTDFTLTINPVEPDDVATYYCQQTNEDPPTFGGGTKLEIK
As to B2, the binding result in assay [1], in assay [2] and in assay [3] was “binds” each time.

B3: anti-human erbB3 monoclonal antibody 920104 (antibody, V domains shown)
VH: VQLQESGPGLVKPSQSLSLTCSVTGYSFTNGYYWNWIRQFPGNKLEWMGYISYDGNNSYNPSLKNRISITRDTSKNQFFLKLNSVTTEDTATYYCASHGYYEEDYYAMDYWGQGTSVTVSS
VL: DIVLTQSPASLAVSLGQRATISCRASKSVSTSGYSYMHWYQQKPGQPPKLLIYLASNLESGVPARFSGSGSGTDFTLNIHPVEEEDAATYYCQHSRELPLTFGAGTKLELK
B3: the binding result in assay [1] is listed as “binds”.

The values are drawn from patent US20120328623A1 (Kyowa Kirin, published 2012).
